Experimental data published in US9695193B2, “Inhibitors of Plasmodium falciparum equilibrative nucleoside transporter type I as anti-parasitic compounds” (The Trustees of Columbia University in the City of New York, priority 2013, dated 2017).

By UniProt entry, the sequences of proteins in these tests, tags left out. Where a name states a change or a piece, a line headed by the entry shows the natural chain unless it says otherwise.
UniProt Q8IDM6: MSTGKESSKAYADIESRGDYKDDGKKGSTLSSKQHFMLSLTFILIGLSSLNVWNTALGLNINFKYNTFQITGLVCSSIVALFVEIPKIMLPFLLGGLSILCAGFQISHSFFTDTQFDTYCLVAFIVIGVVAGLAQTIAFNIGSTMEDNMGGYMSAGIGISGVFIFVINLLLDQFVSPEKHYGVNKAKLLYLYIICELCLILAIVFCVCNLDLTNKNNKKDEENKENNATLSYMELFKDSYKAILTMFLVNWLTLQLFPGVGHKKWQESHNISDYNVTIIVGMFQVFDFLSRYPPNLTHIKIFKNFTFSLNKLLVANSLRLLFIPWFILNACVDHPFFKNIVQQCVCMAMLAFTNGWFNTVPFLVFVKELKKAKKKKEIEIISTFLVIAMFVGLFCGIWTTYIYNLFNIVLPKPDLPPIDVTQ

Molecular target: T1, PfENT1 (Plasmodium falciparum, UniProt Q8IDM6)
T1 construct: expressed in transfected cells; host or cells: fui1Δ yeast (Saccharomyces cerevisiae), co-expressing GFP
Format: cell-based
Conditions: primary HTS, compounds at 10 μM, 125 μM 5-FUrd
Text: A yeast-based high throughput screening (HTS) assay was used to identify compounds that inhibit PfENT1. The compounds described in this application were identified by screening four commercially available, chemical compound libraries obtained from Dr. Donald Landry's laboratory (Department of Medicine, Columbia University). These libraries contain approximately 80,000 unique chemical entities. Derivatives of the some of the initial hits were purchased from ChemBridge Corporation (11199 Sorrento Valley Road, Suite 206, San Diego, Calif., 92121) and other novel chemical entities have been synthesized and tested as well.
In the primary screen the compounds were tested at a concentration of 10 μM. Hits were identified by the growth of fui1Δ yeast expressing PfENT1 and Green Fluorescent Protein (GFP) in the presence of the cytotoxic nucleoside 5-fluorouridine (5-FUrd). 5-FUrd is transported by PfENT1. PfENT1 expressing fui1Δ yeast will only grow in the presence of 125 μM 5-FUrd if a PfENT1 inhibitor blocks the uptake of 5-FUrd into the yeast. Significant yeast growth in the HTS in 384 well plates was determined by two criteria: 1) turbidity as determined by the optical density at 620 nm (OD620) and 2) GFP fluorescence intensity. Positive responses were signal intensities greater than four standard deviations above the mean of the negative growth control wells. […]

CNCCC(Oc1ccc(C(F)(F)F)cc1)c1ccccc1.Cl (stereo not shown) [compound 98]
Avg Normalized % maximal activity: 4.84%
